These results are taken from paper PMC7378894.

Chains of the proteins cited; added tags and fusions are not shown.
UniProt O75626: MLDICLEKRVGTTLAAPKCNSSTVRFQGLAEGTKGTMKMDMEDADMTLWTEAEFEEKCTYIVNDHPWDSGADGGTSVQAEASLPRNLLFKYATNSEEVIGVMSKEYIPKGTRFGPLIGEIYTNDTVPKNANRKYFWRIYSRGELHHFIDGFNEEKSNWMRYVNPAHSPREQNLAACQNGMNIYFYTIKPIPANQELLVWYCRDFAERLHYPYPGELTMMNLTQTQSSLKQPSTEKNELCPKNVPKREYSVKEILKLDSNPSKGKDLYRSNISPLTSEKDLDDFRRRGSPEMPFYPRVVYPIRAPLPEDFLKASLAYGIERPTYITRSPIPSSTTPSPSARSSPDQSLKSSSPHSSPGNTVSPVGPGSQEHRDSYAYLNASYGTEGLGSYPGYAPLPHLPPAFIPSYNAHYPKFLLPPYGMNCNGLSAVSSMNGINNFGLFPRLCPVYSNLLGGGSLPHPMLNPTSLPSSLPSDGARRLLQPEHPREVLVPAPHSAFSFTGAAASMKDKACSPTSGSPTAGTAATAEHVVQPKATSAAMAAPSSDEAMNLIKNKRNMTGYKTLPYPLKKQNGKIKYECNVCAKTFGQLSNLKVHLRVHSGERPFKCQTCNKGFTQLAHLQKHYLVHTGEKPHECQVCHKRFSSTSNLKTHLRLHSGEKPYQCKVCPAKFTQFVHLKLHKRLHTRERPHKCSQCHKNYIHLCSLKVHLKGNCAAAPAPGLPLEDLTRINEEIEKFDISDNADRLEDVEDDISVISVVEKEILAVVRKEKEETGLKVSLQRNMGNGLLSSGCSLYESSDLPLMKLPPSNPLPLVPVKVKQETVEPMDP

Assay [1] has as its target Positive regulatory domain 1 (PRDM1) in monocyte derived-dendritic cells (human (endogenous in MO-DCs)) (UniProt O75626). Put plainly: proximity ligation; in situ PLA (Duolink) on fixed, permeabilised primary MO-DCs, anti-PRDM1 or normal rabbit IgG with anti-TP53BP1, anti-hnRNPM or anti-NonO; unstimulated, and for NonO also after LPS for 6 h.
Assay [2] shares this target. Put plainly: co-IP; nuclear fraction of MO-DCs incubated overnight at 4°C with anti-PRDM1 antibody or control IgG on protein G or A magnetic beads; immunoblot of the eluate. In general terms: In western blotting, separated proteins are transferred to a membrane and probed.
In assay [3] the target is Positive regulatory domain 1 (PRDM1) in human myeloma cell lines (human (endogenous in U-266 and RPMI-8226)) (UniProt O75626). Nature of the assay: proximity ligation; in situ PLA on RPMI-8226 myeloma cells, anti-NonO with anti-PRDM1 or control IgG.
For assay [4] the target is unchanged. Put plainly: proximity ligation; in situ PLA on U-266 myeloma cells, anti-NonO with anti-PRDM1 or control IgG.
Assay [5] addresses Positive regulatory domain 1 (PRDM1), expressed from the Origene tagged ORF clone in HEK-293 cells (human) (UniProt O75626). Put plainly: proximity ligation; in situ PLA on transfected HEK-293 cells, PRDM1 antibody with Flag or V5 antibody; PRDM1 antibody alone as technical control.
Assay [6] has the same target. Put plainly: co-IP; nuclear extract of HEK-293 cells transiently transfected with PRDM1 and Flag-NonO, Flag-TP53BP1 or V5-hnRNPM; immunoprecipitated with anti-PRDM1 antibodies; anti-FLAG and anti-V5 immunoblot.

Results are given in words; binding and its absence hold for the method and conditions named. Binding seen in cells or lysates may run through a third protein. Some results given as binding are weak or reduced against the parent protein; the word gives no strength. For part of these data: Tags and fused reporters may be left off the sequences shown.

B1: non-POU domain-containing octamer-binding protein (NonO) in monocyte derived-dendritic cells (protein, UniProt Q15233 1-471)
chain: MQSNKTFNLEKQNHTPRKHHQHHHQQQHHQQQQQQPPPPPIPANGQQASSQNEGLTIDLKNFRKPGEKTFTQRSRLFVGNLPPDITEEEMRKLFEKYGKAGEVFIHKDKGFGFIRLETRTLAEIAKVELDNMPLRGKQLRVRFACHSASLTVRNLPQYVSNELLEEAFSVFGQVERAVVIVDDRGRPSGKGIVEFSGKPAARKALDRCSEGSFLLTTFPRPVTVEPMDQLDDEEGLPEKLVIKNQQFHKEREQPPRFAQPGSFEYEYAMRWKALIEMEKQQQDQVDRNIKEAREKLEMEMEAARHEHQVMLMRQDLMRRQEELRRMEELHNQEVQKRKQLELRQEEERRRREEEMRRQQEEMMRRQQEGFKGTFPDAREQEIRMGQMAMGGAMGINNRGAMPPAPVPAGTPAPPGPATMMPDGTLGLTPPTTERFGQAATMEGIGAIGGTPPAFNRAAPGAEFAPNKRRRY
B1: the binding result in assay [1] and in assay [2] was “binds” throughout.

B2: non-POU domain-containing octamer-binding protein (NonO) in human myeloma cell lines (protein, UniProt Q15233 1-471)
chain: B1 chain
In the case of B2, the binding result in assay [3] and in assay [4] was “binds” each time.

B3: Flag-NonO (non-POU domain-containing octamer-binding protein) (protein, UniProt Q15233 1-471)
chain: B1 chain
As to B3, the binding result in assay [5] and in assay [6] was “binds” each time.
